The source of these data is PubChem BioAssay AID1347423 (Functional Genomics Laboratory (NCATS/FGL), 2020).

About 210 (0.4%) of roughly 52,000 sequences were called active.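 Rule for the calls: active = gene whose silencing raises cell survival under the drug, median off-target-corrected z-score across its silencing RNAs 2 or more; inactive = the rest.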 The list shows a part of the results.

The assay can be described thus: Resistance to Poly (ADP-Ribose) Polymerase inhibitor: Gene Identification via Genome-wide siRNA Screen. Particulars: mouse BRCA2 R2336H ES cells, olaparib, CellTiter-Glo viability; active compounds read high. From the text:
The role of Poly (ADP-Ribose) Polymerase (PARP) proteins in DNA repair has been elegantly utilized for the synthetic lethality-based treatment of BRCA-deficient tumors by PARP inhibitors. PARP inhibitors are now being used for treatment of BRCA-deficient breast and ovarian cancers. […] While several mechanisms of drug resistance have been identified, majority of these tumors develop drug resistance due to unknown causes. To identified novel regulators of chemo-resistance in BRCA2-mutated cells, we performed a genome wide siRNA library screen. We have found ES cells expressing a hypomorphic allele of BRCA2 to be hypersensitive to PAPP inhibitors (such as olaparib). We used ES cells expressing a mutant allele of BRCA2 that has a single amino acid substitution at position 2336 (arginine to histidine, R2336H). The screen was conducted using an Ambion (Thermo) Silencer Mouse Genome siRNA collection. The library targets 17,575 mouse genes with 3 siRNAs per gene. TET2 (E130014J05Rik) was identified as a top candidate.
Transfections were performed in 384 well plates (Corning 3707). Plates were coated with 0.1% gelatin in H2O overnight at ambient temperature. Gelatin solution was aspirated (BioTek EL406) and siRNAs were printed using a Bravo VPrep liquid handler integrated within a BioCel automation platform (Agilent). Cell viability was measured using CellTiter Glo (Promega). For transfections, […] of serum free media containing Lipofectamine RNAiMax […] was added to wells containing siRNA (0.8pmol). Lipid and siRNA were allowed to complex for 45 min at ambient temperature before addition of 1000 cells in DMEM, 30% FBS to yield final transfection mixtures containing 20 nM siRNA in DMEM, 15% FBS. PARPi (olaparib, AZD2281) was added 48 h post-transfection (500 nM) and viability (CellTiter Glo, Promega) was assayed 72 h later on a PerkinElmer Envision 2104 Multilabel plate reader. Ambion Silencer Select Negative Control #2 was incorporated on all screening plates (16 wells) and the median negative control value on each plate was used for normalization. An siRNA targeting Trp53 was used as a positive control. This control yielded a median protective effect of ~1.9 fold versus negative control throughout the screen. The median absolute deviation (MAD) based z-score was calculated for each siRNA. Genes were then ranked by taking the median value for all siRNAs tested against a given gene. Scores were also adjusted for seed-based off-target effects to help deprioritize likely false positives.
In the case of GCUAUGUGUACAGCUGCUGTT against V1rd2, the z-score is inactive: -1.09.
GGCUAUCUUCAAUAUACUGTT against Lamp3: the z-score is inactive: 0.254.
With GCAGUAUACUUUUGUGAAUTT against Plxna2, the z-score was inactive: -0.711.
With GGCAAACAUGGAAUACACCTT against Gabrd, the z-score was inactive: 0.249.
With GGUCAAUGGAAUGAAAACCTT against Ptprc, the z-score is inactive: 0.0693.
For UCAUCGUACCCAUUCCCAATT against Manbal the value was inactive: 2.23; for GGCCUAUGGAUUUGACUUCTT against Mrpl28, inactive: 0.327.
As to GGAAAGGAAAAUCAACUUCTT against Usp14, the z-score is inactive: 0.59.
For GGGAUUUGUUGUCUAAGAUTT against Mapk10 the value was inactive: 0.0938.
Consider GGCACUUUGUUCUAGCAGCTT against Pcdhb21, for which the z-score was inactive: 0.341.
For GGUAAUAUUUCGUGCUUUATT against Lamb1-1, the z-score was inactive: 0.769.
As to CCUACUGCAUUAAAAAACUTT against Lactb2, the z-score was inactive: 2.1.
On to GGAGACUGGAGCUUCAUCUTT against Edg4, for which the z-score is inactive: 0.0141.
As to “GCACAGUCACUAGCUGAAUTT against 4930432K09Rik”, the z-score is inactive: 1.65.
For the sequence GGGAUCCACAAAUAAAAGATT against Klk4, the z-score was inactive: 2.73.
With GGACUGAGAAAAUCUUCCGTT against Hpca the figure was inactive: 0.605; with “GGUGUGGAACGACAAACAGTT against 4732472I07Rik”, inactive: 1.73; with GGAAUGUAACUGAAAGACUTT against Myo1c, inactive: -0.869.
As to GGUUGACUUAAAUGUCAGGTT against Rxrb, the z-score is inactive: 0.435.
GCAUCAUCUGAUCUGCACGTT against Nkx2-9: the z-score is inactive: 2.25.
In the case of GGAACUUAACUUACACAUGTT against Nr2f1, the z-score was inactive: -1.19.
Turning to GCUCCUCUCAGGUGUACGATT against BC028440, the z-score was inactive: 0.657.
Regarding GGUUCCUAUACCCAACGGUTT against Mrgpra7, the z-score is inactive: 0.792.
GGUGCUAGUGGUGACCAUGTT against Pign: the z-score was inactive: 2.31.
For the sequence CGAUCGAUGUUAAAUGUAGTT against Nppa, the z-score was inactive: -2.26.
On to GCUUUGCGCUGCCCUUAUATT against BC024561, for which the z-score is inactive: -0.785.
As to CCAGCAAAGACAAGUCUCCTT against Hoxb9, the z-score was inactive: 0.963.
Take GGUGUUCUUACCUUUUGACTT against Il9r: the z-score was inactive: 0.404.
In the case of GGCCUUUCACAAAUUAGCCTT against Dnajb9, the z-score is inactive: 0.103.
